{
  "sequences": {"note": "By UniProt entry, the sequences of proteins in these tests, tags left out.", "UniProt P10276": "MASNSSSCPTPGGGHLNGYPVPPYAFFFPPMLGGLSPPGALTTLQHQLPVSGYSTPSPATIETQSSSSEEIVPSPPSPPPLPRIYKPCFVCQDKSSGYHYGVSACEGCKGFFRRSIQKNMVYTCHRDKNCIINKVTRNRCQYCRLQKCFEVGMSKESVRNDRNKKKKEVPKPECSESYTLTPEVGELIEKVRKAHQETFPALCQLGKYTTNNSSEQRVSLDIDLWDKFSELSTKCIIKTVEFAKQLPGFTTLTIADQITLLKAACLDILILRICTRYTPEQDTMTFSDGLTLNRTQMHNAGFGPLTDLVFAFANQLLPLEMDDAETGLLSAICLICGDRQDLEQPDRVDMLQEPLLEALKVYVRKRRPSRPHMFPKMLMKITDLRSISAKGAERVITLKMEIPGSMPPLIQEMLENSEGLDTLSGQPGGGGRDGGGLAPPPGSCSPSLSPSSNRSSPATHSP"},
  "source": "paper PMC6838077",
  "target": "RARA-DDK protein (epitope-tagged retinoic acid receptor alpha) (UniProt P10276)",
  "test": "affinity purification with mass spectrometry; anti-DDK immunoprecipitate of RARA-DDK from HEK293 whole cell lysate, no retinoic acid treatment; SDS-PAGE, in-gel tryptic digestion, LC-MS/MS",
  "note": "No constants are given. Whether binding was seen depends on the method and setting. In cells and extracts the contact can be indirect. A yes stands for co-enrichment or nearness to the bait. Other partners may have been found.",
  "data": [
    {"substance": "valosin-containing protein (VCP/p97/Cdc48), endogenous in HEK293 (from UniProt P55072 1-806)", "values": [
      {"measurement": "binding", "value": "binds"}
    ]}
  ]
}
